Source: ChEMBL document CHEMBL4316593 (Eur J Med Chem, 2019)
The source gives many values for each of these; only a part stands here.

Experiments:
Assay type in all cases: cell-based
Settings in all cases: U-87MG ATCC
[1] = Inhibition of RTK/PI3K/AKT/mTOR signaling in human U87 cells assessed as up regulation of ATPase phospholipid transporting 8B3 gene expression at cytotoxic IC50 measured after 48 hrs relative to control
[2] = Inhibition of RTK/PI3K/AKT/mTOR signaling in human U87 cells assessed as down regulation of RTCA gene expression at cytotoxic IC50 measured after 48 hrs relative to control
[3] = Inhibition of RTK/PI3K/AKT/mTOR signaling in human U87 cells assessed as down regulation of DNAJA4 gene expression at cytotoxic IC50 measured after 48 hrs relative to control
[4] = Inhibition of RTK/PI3K/AKT/mTOR signaling in human U87 cells assessed as up regulation of KIRREL gene expression at cytotoxic IC50 measured after 48 hrs relative to control
[5] = Inhibition of RTK/PI3K/AKT/mTOR signaling in human U87 cells assessed as up regulation of FK506 binding protein 8 gene expression at cytotoxic IC50 measured after 48 hrs relative to control
[6] = Inhibition of RTK/PI3K/AKT/mTOR signaling in human U87 cells assessed as down regulation of LGMN gene expression at cytotoxic IC50 measured after 48 hrs relative to control
[7] = Inhibition of RTK/PI3K/AKT/mTOR signaling in human U87 cells assessed as up regulation of ribosomal modification protein rimK like family member A gene expression at cytotoxic IC50 measured after 48 hrs relative to control
[8] = Inhibition of RTK/PI3K/AKT/mTOR signaling in human U87 cells assessed as down regulation of SPDL1 gene expression at cytotoxic IC50 measured after 48 hrs relative to control
[9] = Inhibition of RTK/PI3K/AKT/mTOR signaling in human U87 cells assessed as down regulation of STRIP2 gene expression at cytotoxic IC50 measured after 48 hrs relative to control
[10] = Inhibition of RTK/PI3K/AKT/mTOR signaling in human U87 cells assessed as up regulation of TPT1 gene expression at cytotoxic IC50 measured after 48 hrs relative to control
[11] = Inhibition of RTK/PI3K/AKT/mTOR signaling in human U87 cells assessed as down regulation of KPNA2 gene expression at cytotoxic IC50 measured after 48 hrs relative to control
[12] = Inhibition of RTK/PI3K/AKT/mTOR signaling in human U87 cells assessed as up regulation of SLC19A1 gene expression at cytotoxic IC50 measured after 48 hrs relative to control
[13] = Inhibition of RTK/PI3K/AKT/mTOR signaling in human U87 cells assessed as up regulation of AHNAK gene expression at cytotoxic IC50 measured after 48 hrs relative to control
[14] = Inhibition of RTK/PI3K/AKT/mTOR signaling in human U87 cells assessed as up regulation of interferon related developmental regulator 2 gene expression at cytotoxic IC50 measured after 48 hrs relative to control
[15] = Inhibition of RTK/PI3K/AKT/mTOR signaling in human U87 cells assessed as up regulation of phosphoribosyl-aminoimidazole carboxylase and phosphoribosyl-aminoimidazole-succinocarboxamide synthase gene expression at cytotoxic IC50 measured after 48 hrs relative to control
[16] = Inhibition of RTK/PI3K/AKT/mTOR signaling in human U87 cells assessed as up regulation of mucin 3A, cell surface associated gene expression at cytotoxic IC50 measured after 48 hrs relative to control
[17] = Inhibition of RTK/PI3K/AKT/mTOR signaling in human U87 cells assessed as up regulation of ACBD4 gene expression at cytotoxic IC50 measured after 48 hrs relative to control
[18] = Inhibition of RTK/PI3K/AKT/mTOR signaling in human U87 cells assessed as up regulation of ATP1A1 gene expression at cytotoxic IC50 measured after 48 hrs relative to control
[19] = Inhibition of RTK/PI3K/AKT/mTOR signaling in human U87 cells assessed as up regulation of RPRD1A gene expression at cytotoxic IC50 measured after 48 hrs relative to control
[20] = Inhibition of RTK/PI3K/AKT/mTOR signaling in human U87 cells assessed as down regulation of GALNT1 gene expression at cytotoxic IC50 measured after 48 hrs relative to control
[21] = Inhibition of RTK/PI3K/AKT/mTOR signaling in human U87 cells assessed as down regulation of DHCR24 gene expression at cytotoxic IC50 measured after 48 hrs relative to control
[22] = Inhibition of RTK/PI3K/AKT/mTOR signaling in human U87 cells assessed as up regulation of PHGDH gene expression at cytotoxic IC50 measured after 48 hrs relative to control
[23] = Inhibition of RTK/PI3K/AKT/mTOR signaling in human U87 cells assessed as up regulation of ABHD14B gene expression at cytotoxic IC50 measured after 48 hrs relative to control
[24] = Inhibition of RTK/PI3K/AKT/mTOR signaling in human U87 cells assessed as up regulation of C1QL4 gene expression at cytotoxic IC50 measured after 48 hrs relative to control
[25] = Inhibition of RTK/PI3K/AKT/mTOR signaling in human U87 cells assessed as down regulation of CNP gene expression at cytotoxic IC50 measured after 48 hrs relative to control
[26] = Inhibition of RTK/PI3K/AKT/mTOR signaling in human U87 cells assessed as up regulation of RASGRF1 gene expression at cytotoxic IC50 measured after 48 hrs relative to control
[27] = Inhibition of RTK/PI3K/AKT/mTOR signaling in human U87 cells assessed as down regulation of SUGT1 gene expression at cytotoxic IC50 measured after 48 hrs relative to control
[28] = Inhibition of RTK/PI3K/AKT/mTOR signaling in human U87 cells assessed as up regulation of ALDOA gene expression at cytotoxic IC50 measured after 48 hrs relative to control
[29] = Inhibition of RTK/PI3K/AKT/mTOR signaling in human U87 cells assessed as up regulation of endoplasmic reticulum aminopeptidase 1 gene expression at cytotoxic IC50 measured after 48 hrs relative to control
[30] = Inhibition of RTK/PI3K/AKT/mTOR signaling in human U87 cells assessed as down regulation of RRAD gene expression at cytotoxic IC50 measured after 48 hrs relative to control
[31] = Inhibition of RTK/PI3K/AKT/mTOR signaling in human U87 cells assessed as down regulation of WDR47 gene expression at cytotoxic IC50 measured after 48 hrs relative to control
[32] = Inhibition of RTK/PI3K/AKT/mTOR signaling in human U87 cells assessed as up regulation of cytochrome b5 type B gene expression at cytotoxic IC50 measured after 48 hrs relative to control

CC(=O)C(=NNc1ccccc1C#N)C(C)=O
log2FC [1]: 1.41
log2FC [2]: -0.745
log2FC [3]: -1.71
log2FC [4]: 1.63
log2FC [5]: 0.849
log2FC [6]: -1.44
log2FC [7]: 0.951
log2FC [8]: -0.856
log2FC [9]: -1.78
log2FC [10]: 0.443
log2FC [11]: -0.331
log2FC [12]: 2.21
log2FC [13]: 0.558
log2FC [14]: 0.953
log2FC [15]: 0.925
log2FC [16]: 1.56
log2FC [17]: 1.69
log2FC [18]: 0.427
log2FC [19]: 0.562
log2FC [20]: -1.02
log2FC [21]: -0.483
log2FC [22]: 0.507
log2FC [23]: 0.601
log2FC [24]: 3.05
log2FC [25]: -0.552
log2FC [26]: 2.31
log2FC [27]: -0.807
log2FC [28]: 1.73
log2FC [29]: 1.55
log2FC [30]: -1.46
log2FC [31]: -1.47
log2FC [32]: 0.714
